Assay results

Source: PubChem BioAssay AID1918963 (NCATS, 2023).

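This is a 48-hour luminescent ATP readout of how many cells of the JIM3 myeloma line survive drug treatment.
Compounds were titrated from roughly 0.00003 to 92 µM.
The number is the fitted AC50 for the cytotoxic effect; a lower value means a more potent compound.
Calls follow the NCATS curve-class scoring: actives score 40–100, while inconclusive compounds score 1–39 and have a curve class other than 4.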

Values are in µM.
All entries here are filed as inconclusive.
Only part of the assay is shown, chiefly results filed as inconclusive.
A potency from a partial, single-point or poor curve is only a rough figure.
Some entries filed as inconclusive have a full curve.
Activity scores are not listed here.

* Nc1ccc(-c2ccc3ncc4ccc(=O)n(-c5cccc(C(F)(F)F)c5)c4c3c2)cn1 : Potency 0.0332 µM (cytotoxic, full curve)
* Cc1cnc(CNC(=O)c2c(=O)c3ccc(N4CCCN(C)CC4)nc3n3c2sc2ccccc23)cn1 : Potency 4.07 µM (cytotoxic, partial curve, poor fit)
* CN(CC=CC#CC(C)(C)C)Cc1cccc2ccccc12 : Potency 26.35 µM (cytotoxic, single point)
* CC(=O)Oc1ccccc1C(=O)O : Potency 2.093 µM (cytotoxic, partial curve, poor fit)
* CC(O)(C#Cc1ccc2c(c1)N(c1nc(N)ncc1Cl)CC2)c1nccs1 (stereo unspecified) : Potency 16.63 µM (cytotoxic, partial curve)
* Cc1ccnc2c1NC(=O)c1cccnc1N2C1CC1 : Potency 29.57 µM (cytotoxic, single point)
* Cc1ccc(NC(=O)c2cccc(N(C)C)c2)cc1NC(=O)c1ccc(O)cc1 : Potency 14.82 µM (cytotoxic, partial curve)
* CCN(CC)CCCCNc1ncc2c(n1)N(C)C(=O)N(c1c(Cl)c(OC)cc(OC)c1Cl)C2 : Potency 23.48 µM (cytotoxic, single point)
* CC1(C)CCC(c2ccc(Cl)cc2)=C(CN2CCN(c3ccc(C(=O)NS(=O)(=O)c4ccc(N[C@H](CCN5CCOCC5)CSc5ccccc5)c(S(=O)(=O)C(F)(F)F)c4)cc3)CC2)C1 : Potency 16.63 µM (cytotoxic, partial curve)
* CC(=CC(=O)Nc1ccccc1C(=O)O)c1ccc2ccccc2c1 : Potency 20.93 µM (cytotoxic, single point)
* COC(=O)C=CC(=O)OC : Potency 3.722 µM (cytotoxic, full curve)
* CC(C)(C)Cn1c(N)nc2ccc(-c3[nH]c(C(C)(C)C)nc3-c3ccc(F)cc3)nc21 : Potency 16.63 µM (cytotoxic, partial curve)
* CCOC(=O)C1=C(C)NC2=C(C(=O)CC(C)(C)C2)C1c1ccc(-c2ccccc2)cc1 (stereo unspecified) : Potency 14.82 µM (cytotoxic, partial curve)
* CCOc1cc(C=C2C(=O)N(c3ccccc3)N=C2C)cc(Cl)c1OCC(=O)OC : Potency 20.93 µM (cytotoxic, partial curve)
* CN1CCc2c(n(Cc3ccc(C(=O)NO)cc3)c3ccccc23)C1 : Potency 33.17 µM (cytotoxic, single point)
* CCOc1cc2ncc(C#N)c(Nc3ccc(OCc4ccccn4)c(Cl)c3)c2cc1NC(=O)C=CCN(C)C : Potency 1.865 µM (cytotoxic, partial curve, poor fit)
* O=C(c1cc(Cc2n[nH]c(=O)c3ccccc23)ccc1F)N1CCN(C(=O)C2CC2)CC1 : Potency 26.35 µM (cytotoxic, partial curve)
* CS(=O)(=O)c1ccc(-c2cnc(N)c(C(=O)Nc3ccccc3)n2)cc1 : Potency 2.635 µM (cytotoxic, full curve)
* CCC[C@H](Nc1nc(-c2ccc(NC(=O)NCC)c(OC)c2)ncc1C)c1cccnc1 : Potency 0.0037 µM (cytotoxic, full curve)
* O=C(Nc1ccc(Oc2ccnc3[nH]ccc23)c(F)c1)c1cccn(-c2ccc(F)cc2)c1=O : Potency 33.17 µM (cytotoxic, partial curve, poor fit)
* O=C(O)CCNc1cc(N2CCc3ccccc3CC2)nc(-c2ccccn2)n1 : Potency 8.333 µM (cytotoxic, partial curve, poor fit)
* O=C(Nc1ccc(F)c(C(F)(F)F)c1)Nc1nnc(-c2ccncc2)s1 : Potency 9.35 µM (cytotoxic, partial curve, poor fit)
* C=C(c1ccc(C(=O)O)cc1)c1cc2c(cc1C)C(C)(C)CCC2(C)C : Potency 0.0935 µM (cytotoxic, partial curve, poor fit)

For reference, 2 entries once more:

| Compound | Potency (µM) | remark |
|---|---|---|
| `COC(=O)C=CC(=O)OC` | 3.722 | cytotoxic, full curve |
| `CCOc1cc(C=C2C(=O)N(c3ccccc3)N=C2C)cc(Cl)c1OCC(=O)OC` | 20.93 | cytotoxic, partial curve |